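Mouse JNK3 activity from prestimulated HepG2 lysate, measured as phospho-c-Jun AlphaScreen signal after two hours of kinase reaction plus three hours detection. Each compound ran as a dilution series from about 0.6 nM up to 57.1 µM. Fitted AC50 for either an inhibiting or an activating curve; a lower value means greater potency. Calls come from the fitted dose curve (inhibitor, activator, inactive or inconclusive); every row here is inconclusive, including some full curves, so the exact cut-off is unclear.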

Values are in µM. Every entry below has the call inconclusive. These entries are mostly ones the record files as inconclusive; other results of the assay are not listed here. Potencies fitted to partial, single-point or poorly fitting curves are rough. Some entries filed as inconclusive have a full curve. The first word of each remark tells which way the curve ran; it can be opposite to the aim of the assay.

structure,Potency (µM),curve
CC(C)(c1ccc(OC[C@@H]2CO2)cc1)c1ccc(OC[C@H]2CO2)cc1,31.62,"activator, partial curve"
O=c1c(-c2ccc(O)cc2)coc2cc(O)ccc12,19.95,"activator, partial curve, poor fit"
Cc1ccnc(N)c1,3.981,"activator, full curve, poor fit"
c1ccc(N=NNc2ccccc2)cc1,39.81,"inhibitor, single point"
NCCO,0.001995,"activator, full curve, poor fit"
C=CCN1CCc2cc(O)c(O)cc2[C@H](c2ccccc2)C1,0.01585,"activator, full curve, poor fit"
CN1CCC[C@@H]1CCO[C@](C)(c1ccccc1)c1ccc(Cl)cc1,25.12,"activator, partial curve, poor fit"
O=C(O)COc1ccc(Cl)cc1Cl,15.85,"activator, single point"
NC(N)=NCCC[C@H](N)C(=O)O,0.007943,"activator, full curve, poor fit"
Cc1[nH]c2ccc(O)cc2c1CCN,0.1585,"activator, full curve, poor fit"
CC(C)(c1ccc(OCC2CO2)cc1)c1ccc(OCC2CO2)cc1 (stereo not drawn),25.12,"activator, partial curve"
O=C1NC(O)=NC1(c1ccccc1)c1ccccc1,0.01995,"activator, full curve, poor fit"
[Cl][In]([Cl])[Cl],15.85,"activator, full curve, poor fit"
ClC(Cl)=C(c1ccc(Cl)cc1)c1ccc(Cl)cc1,39.81,"activator, single point"
N[C@H](CCCP(=O)(O)O)C(=O)O,3.981,"activator, partial curve, poor fit"
S=C(NC1CCCCC1)N1CCC(c2cnc[nH]2)CC1,0.7943,"activator, partial curve, poor fit"
CCN1C[C@]2(COC(=O)c3ccccc3N3C(=O)C[C@H](C)C3=O)CC[C@H](OC)[C@@]34[C@@H]5C[C@H]6[C@H](OC)[C@H]5[C@](O)(C[C@@H]6OC)[C@@](O)([C@@H](OC)[C@@H]23)[C@@H]14,15.85,"activator, single point"
CC(=O)N1CCC[C@@]2(CCN(Cc3cc(C(F)(F)F)cc(C(F)(F)F)c3)C2)C1,0.0001995,"activator, full curve"
O=C1C[C@H]2C(=O)[C@@H]1[C@@H](C(=O)O)[C@H]2C(=O)O,0.01995,"activator, full curve"
CC(C)C[C@@H](CC(=O)N[C@@H](CCC(=O)O)CC(=O)O)NC(=O)[C@@H]1CNCC[C@H]1NC(=O)C[C@@H](NC(=O)C[C@H](Cc1c[nH]c2ccccc12)NC(=O)[C@@H]1CCCC[C@H]1N)C(C)C,12.59,"inhibitor, single point"
CN1CCc2cc(O)cc3c2[C@H]1Cc1ccc(O)c(O)c1-3,15.85,"inhibitor, partial curve, poor fit"
CN(C)c1ccc(C(c2ccc(N(C)C)cc2)c2ccc([N+](=O)[O-])cc2)cc1,3.162,"inhibitor, single point"
COc1ccccc1N1CCN(CCCCNC(=O)c2ccc(-c3ccc(C(C)=O)cc3)cc2)CC1,0.01995,"activator, full curve, poor fit"
COCCOC(=O)C1=C(C)NC(C)=C(C(=O)OC(C)C)[C@@H]1c1cccc([N+](=O)[O-])c1,0.1259,"activator, full curve, poor fit"
CCCOC(=O)c1c(-c2ccccc2)nc(CC)c(C(=O)SCC)c1CCC,15.85,"activator, partial curve"
CCSC(=O)N1CCCCCC1,15.85,"activator, full curve, poor fit"
Cc1cc(C(C)(C)C)c(O)c(C)c1CC1=NCCN1,0.07943,"activator, full curve, poor fit"
Cc1cnc(CNc2ncnc3ccc(-c4ccccc4CN(C)C)cc23)cn1,19.95,"inhibitor, partial curve"
CCC/C=C(\CCC)C(NS(=O)(=O)c1ccc(-c2ccccc2)cc1)c1ccc(C(=O)OC)cc1 (stereo not drawn),25.12,"activator, partial curve"
CCC/C=C(\CCC)C(NC(=O)C(C)(C)C)c1ccc(C(=O)OC)cc1 (stereo not drawn),39.81,"activator, single point"
COc1ccccc1N1CCN(C[C@@H](C(=O)NC(C)(C)C)c2ccccc2)CC1,0.01,"activator, full curve, poor fit"
COc1ccccc1O,0.03981,"activator, full curve, poor fit"
c1ccc(P(c2ccccc2)c2ccccc2)cc1,2.512,"inhibitor, full curve, poor fit"
COc1cccc(Cn2c(=O)c(-c3cc(F)cc(F)c3)nc3cncnc32)c1,12.59,"inhibitor, partial curve"
CCCCNc1ccc(C(=O)OCCN(C)C)cc1,39.81,"activator, partial curve, poor fit"

The first 4 entries again:

Result for CC(C)(c1ccc(OC[C@@H]2CO2)cc1)c1ccc(OC[C@H]2CO2)cc1 was Potency 31.62 µM (activator, partial curve).
Result for O=c1c(-c2ccc(O)cc2)coc2cc(O)ccc12 was Potency 19.95 µM (activator, partial curve, poor fit).
Result for Cc1ccnc(N)c1 was Potency 3.981 µM (activator, full curve, poor fit).
Result for c1ccc(N=NNc2ccccc2)cc1 was Potency 39.81 µM (inhibitor, single point).

The results are deposited in PubChem (AID530; NCATS, 2006).